Assay results published in the supplement of paper PMC6411743.
± gives the standard deviation of the averaged measurements. This is a selection; strong and weak results do not stand in their true shares.

Amino acid sequences for entries named in this document (tags omitted). A change or cut given only in a name is not applied to a line headed by its entry.
UniProt P40222: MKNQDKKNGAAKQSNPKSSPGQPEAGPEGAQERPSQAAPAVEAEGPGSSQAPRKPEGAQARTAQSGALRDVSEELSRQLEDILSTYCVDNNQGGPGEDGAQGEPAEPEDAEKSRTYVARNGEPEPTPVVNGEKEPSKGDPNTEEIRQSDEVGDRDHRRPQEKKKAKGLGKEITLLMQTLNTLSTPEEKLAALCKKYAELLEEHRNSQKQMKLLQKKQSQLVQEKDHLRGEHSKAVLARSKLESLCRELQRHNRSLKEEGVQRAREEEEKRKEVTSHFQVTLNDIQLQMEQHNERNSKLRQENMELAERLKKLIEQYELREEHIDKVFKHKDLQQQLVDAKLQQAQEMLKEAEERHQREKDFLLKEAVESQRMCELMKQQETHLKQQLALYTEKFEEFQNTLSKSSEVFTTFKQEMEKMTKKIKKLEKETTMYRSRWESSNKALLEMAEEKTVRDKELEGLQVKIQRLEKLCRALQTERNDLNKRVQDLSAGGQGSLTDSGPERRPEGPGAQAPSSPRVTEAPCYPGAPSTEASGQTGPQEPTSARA
UniProt P42025, whole entry: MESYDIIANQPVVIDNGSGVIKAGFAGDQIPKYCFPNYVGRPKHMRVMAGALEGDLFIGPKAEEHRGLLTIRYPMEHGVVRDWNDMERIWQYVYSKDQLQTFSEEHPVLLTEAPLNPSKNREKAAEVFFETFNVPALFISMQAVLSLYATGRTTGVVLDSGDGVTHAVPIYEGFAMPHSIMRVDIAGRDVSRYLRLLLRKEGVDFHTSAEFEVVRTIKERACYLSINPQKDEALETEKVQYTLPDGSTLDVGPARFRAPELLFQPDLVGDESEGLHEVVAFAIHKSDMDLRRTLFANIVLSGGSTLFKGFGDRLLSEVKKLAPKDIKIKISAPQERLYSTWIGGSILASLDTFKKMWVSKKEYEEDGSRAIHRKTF
UniProt P42166: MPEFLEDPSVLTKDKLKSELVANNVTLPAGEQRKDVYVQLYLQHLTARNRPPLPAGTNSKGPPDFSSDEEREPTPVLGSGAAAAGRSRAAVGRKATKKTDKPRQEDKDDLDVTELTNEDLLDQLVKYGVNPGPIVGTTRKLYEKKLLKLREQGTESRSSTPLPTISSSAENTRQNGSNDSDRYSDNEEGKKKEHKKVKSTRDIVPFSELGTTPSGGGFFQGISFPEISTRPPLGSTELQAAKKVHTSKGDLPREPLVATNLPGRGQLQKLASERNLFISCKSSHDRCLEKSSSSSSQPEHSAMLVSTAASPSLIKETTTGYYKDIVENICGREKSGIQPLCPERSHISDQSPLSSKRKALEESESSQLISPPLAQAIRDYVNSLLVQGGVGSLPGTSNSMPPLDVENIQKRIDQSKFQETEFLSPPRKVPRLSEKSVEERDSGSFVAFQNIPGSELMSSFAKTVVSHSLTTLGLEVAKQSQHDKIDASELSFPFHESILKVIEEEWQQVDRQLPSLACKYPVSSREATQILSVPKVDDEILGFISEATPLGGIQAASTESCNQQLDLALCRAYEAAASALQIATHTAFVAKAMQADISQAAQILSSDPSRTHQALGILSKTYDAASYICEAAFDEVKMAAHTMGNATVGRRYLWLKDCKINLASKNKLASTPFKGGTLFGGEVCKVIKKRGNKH
UniProt P42167: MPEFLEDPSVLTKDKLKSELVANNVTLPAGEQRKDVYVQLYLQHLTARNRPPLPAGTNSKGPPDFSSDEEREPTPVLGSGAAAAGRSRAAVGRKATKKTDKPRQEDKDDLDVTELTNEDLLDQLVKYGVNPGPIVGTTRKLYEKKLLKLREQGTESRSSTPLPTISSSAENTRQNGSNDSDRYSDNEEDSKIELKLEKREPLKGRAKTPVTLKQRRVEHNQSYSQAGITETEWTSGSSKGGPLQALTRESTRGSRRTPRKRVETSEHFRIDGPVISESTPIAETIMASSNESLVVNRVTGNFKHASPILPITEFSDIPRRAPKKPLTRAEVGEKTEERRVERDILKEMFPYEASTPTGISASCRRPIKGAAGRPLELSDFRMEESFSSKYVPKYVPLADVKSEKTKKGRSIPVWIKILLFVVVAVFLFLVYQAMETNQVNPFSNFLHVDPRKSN
UniProt P43250, whole entry, looked up: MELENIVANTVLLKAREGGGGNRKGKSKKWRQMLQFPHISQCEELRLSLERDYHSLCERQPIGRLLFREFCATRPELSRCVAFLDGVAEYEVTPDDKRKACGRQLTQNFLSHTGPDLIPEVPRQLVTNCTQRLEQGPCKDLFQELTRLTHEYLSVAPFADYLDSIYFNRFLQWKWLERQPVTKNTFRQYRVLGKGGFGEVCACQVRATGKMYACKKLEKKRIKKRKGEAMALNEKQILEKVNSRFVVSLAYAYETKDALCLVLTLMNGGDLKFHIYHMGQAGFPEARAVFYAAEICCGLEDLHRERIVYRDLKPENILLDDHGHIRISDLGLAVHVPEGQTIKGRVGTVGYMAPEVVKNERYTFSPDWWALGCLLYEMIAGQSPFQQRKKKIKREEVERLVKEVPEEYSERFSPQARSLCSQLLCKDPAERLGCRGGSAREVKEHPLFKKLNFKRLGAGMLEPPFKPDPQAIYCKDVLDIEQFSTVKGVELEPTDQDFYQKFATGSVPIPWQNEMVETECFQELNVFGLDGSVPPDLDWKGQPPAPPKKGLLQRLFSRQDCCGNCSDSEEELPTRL
UniProt P52209: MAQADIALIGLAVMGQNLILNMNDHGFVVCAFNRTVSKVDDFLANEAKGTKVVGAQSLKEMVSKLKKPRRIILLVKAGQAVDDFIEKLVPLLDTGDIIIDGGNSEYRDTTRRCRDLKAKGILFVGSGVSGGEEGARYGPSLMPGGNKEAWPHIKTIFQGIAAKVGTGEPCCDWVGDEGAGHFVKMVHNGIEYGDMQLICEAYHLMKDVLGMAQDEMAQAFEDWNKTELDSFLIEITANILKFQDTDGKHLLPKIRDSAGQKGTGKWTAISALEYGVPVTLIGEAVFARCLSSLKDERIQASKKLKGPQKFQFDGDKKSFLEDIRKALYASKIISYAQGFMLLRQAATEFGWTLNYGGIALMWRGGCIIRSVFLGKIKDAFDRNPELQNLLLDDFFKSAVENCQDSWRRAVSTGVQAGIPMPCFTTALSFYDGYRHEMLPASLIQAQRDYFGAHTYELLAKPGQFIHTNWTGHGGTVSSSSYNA
UniProt P48454, whole entry: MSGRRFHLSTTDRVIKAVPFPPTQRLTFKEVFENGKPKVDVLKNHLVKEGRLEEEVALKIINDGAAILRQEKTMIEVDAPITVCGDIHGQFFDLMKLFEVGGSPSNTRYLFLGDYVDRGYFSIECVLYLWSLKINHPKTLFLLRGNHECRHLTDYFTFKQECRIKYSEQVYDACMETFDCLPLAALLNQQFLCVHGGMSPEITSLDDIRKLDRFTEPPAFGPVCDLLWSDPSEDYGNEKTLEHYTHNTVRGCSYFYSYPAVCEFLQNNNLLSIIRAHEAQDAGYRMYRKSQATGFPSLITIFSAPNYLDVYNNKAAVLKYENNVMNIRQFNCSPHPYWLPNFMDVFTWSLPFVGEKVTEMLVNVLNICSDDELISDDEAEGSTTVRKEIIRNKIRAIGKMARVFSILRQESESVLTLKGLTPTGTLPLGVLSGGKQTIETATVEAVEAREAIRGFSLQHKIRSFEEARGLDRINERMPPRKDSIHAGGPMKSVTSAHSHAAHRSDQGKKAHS
UniProt P41236: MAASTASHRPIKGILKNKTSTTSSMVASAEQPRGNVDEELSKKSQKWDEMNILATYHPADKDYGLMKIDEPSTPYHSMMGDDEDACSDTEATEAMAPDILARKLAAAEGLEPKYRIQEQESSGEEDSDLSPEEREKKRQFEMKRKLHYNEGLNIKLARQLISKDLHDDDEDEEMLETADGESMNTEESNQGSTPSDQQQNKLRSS
UniProt P49023, whole entry: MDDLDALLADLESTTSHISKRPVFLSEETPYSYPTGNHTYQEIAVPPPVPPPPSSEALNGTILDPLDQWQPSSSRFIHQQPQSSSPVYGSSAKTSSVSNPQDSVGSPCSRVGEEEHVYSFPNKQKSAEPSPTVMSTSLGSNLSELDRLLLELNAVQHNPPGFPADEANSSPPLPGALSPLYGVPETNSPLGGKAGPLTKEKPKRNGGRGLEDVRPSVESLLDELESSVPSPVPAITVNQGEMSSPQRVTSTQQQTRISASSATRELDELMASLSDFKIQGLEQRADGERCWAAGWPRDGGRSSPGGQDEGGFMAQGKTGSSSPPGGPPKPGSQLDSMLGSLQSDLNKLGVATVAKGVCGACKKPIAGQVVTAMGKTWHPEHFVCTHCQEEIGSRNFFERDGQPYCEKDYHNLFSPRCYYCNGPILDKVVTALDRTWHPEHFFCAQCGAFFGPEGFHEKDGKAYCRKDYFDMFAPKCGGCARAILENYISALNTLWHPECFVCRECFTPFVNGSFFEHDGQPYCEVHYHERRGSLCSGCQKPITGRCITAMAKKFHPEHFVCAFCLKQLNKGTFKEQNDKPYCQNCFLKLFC
UniProt P49590: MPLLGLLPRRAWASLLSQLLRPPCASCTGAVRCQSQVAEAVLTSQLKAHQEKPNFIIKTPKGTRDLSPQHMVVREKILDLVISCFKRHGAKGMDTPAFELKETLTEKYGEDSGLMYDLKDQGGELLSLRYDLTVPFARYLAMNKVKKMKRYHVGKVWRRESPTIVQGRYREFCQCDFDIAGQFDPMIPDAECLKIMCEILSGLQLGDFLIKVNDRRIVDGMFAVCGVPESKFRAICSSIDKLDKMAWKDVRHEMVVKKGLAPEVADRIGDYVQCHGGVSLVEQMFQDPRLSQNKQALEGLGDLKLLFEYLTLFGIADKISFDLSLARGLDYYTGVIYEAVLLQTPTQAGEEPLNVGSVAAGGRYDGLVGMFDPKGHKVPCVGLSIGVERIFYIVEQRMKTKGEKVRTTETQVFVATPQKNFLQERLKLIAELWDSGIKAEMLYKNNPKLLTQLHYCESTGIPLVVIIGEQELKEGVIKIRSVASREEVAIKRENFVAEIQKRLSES
UniProt P41134: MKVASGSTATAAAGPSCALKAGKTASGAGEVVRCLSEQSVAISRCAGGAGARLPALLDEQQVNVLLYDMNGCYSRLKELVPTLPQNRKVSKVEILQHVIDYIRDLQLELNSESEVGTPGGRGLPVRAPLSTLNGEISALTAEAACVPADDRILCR
UniProt P40855: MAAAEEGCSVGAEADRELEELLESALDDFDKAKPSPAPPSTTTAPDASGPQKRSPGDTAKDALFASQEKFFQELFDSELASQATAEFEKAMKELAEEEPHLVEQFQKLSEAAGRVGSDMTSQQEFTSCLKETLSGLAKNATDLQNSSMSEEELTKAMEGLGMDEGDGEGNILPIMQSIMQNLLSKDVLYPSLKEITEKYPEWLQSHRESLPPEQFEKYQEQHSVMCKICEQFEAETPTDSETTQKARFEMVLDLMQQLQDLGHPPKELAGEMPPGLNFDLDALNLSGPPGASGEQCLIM
UniProt P45973, whole entry: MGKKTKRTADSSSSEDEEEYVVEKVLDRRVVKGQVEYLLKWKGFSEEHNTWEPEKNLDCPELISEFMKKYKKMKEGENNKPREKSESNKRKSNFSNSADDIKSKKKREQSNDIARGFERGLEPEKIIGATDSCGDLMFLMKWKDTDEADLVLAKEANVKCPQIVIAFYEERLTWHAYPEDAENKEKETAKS
UniProt P51692: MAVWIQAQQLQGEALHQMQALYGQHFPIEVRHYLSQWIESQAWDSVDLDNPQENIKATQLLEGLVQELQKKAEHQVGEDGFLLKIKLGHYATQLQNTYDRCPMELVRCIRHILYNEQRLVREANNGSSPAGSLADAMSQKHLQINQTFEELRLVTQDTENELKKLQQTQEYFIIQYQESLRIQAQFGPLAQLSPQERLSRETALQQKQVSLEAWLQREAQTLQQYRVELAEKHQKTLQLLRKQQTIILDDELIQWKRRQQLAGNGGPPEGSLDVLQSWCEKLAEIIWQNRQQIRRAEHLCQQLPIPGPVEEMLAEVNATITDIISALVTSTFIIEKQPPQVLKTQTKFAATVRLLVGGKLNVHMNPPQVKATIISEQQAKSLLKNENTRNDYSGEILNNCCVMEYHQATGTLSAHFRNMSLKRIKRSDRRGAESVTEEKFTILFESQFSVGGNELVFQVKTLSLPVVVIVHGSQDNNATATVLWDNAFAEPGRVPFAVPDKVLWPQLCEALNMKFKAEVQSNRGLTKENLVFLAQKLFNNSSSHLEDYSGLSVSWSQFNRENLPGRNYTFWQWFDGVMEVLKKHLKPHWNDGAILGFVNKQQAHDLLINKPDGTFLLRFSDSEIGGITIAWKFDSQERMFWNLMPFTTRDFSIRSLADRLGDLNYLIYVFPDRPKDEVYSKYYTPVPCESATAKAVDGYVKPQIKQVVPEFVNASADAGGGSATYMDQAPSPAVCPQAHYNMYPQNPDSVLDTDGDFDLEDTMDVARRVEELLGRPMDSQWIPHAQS

Compound: Nc1ncnc2c1ncn2[C@@H]1O[C@H](COP(=O)(O)OP(=O)(O)OP(=O)(O)O)[C@@H](O)[C@H]1O [adenosine triphosphate]
Experiment: NP40-soluble protein abundance relative to vehicle (solubility fold change) (ratio); higher = more soluble protein in presence of ATP
Procedure, shortened: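 Data come from three independent experiments in which Dounce-homogenised Jurkat crude lysate was treated at eight concentrations from 0.1 to 10 mM. Treatment ran 10 min at room temperature and then 3 min at 37 °C, after which 0.8% NP40 and benzonase were added for 60 min at 4 °C before ultracentrifugation. The supernatant underwent TMT labelling and LC-MS/MS, and vsn-normalised intensities were expressed as fold change against the detergent-processed vehicle in each replicate.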

Target | NP40-soluble protein abundance (concentration: 1mM) | NP40-soluble protein abundance (concentration: 2mM) | NP40-soluble protein abundance (concentration: 4mM) | NP40-soluble protein abundance (concentration: 6mM) | NP40-soluble protein abundance (concentration: 8mM) | NP40-soluble protein abundance (concentration: 10mM)
TXLNA (UniProt P40222) | 1.01 ± 0.014 | 0.982 ± 0.061 | 1.04 ± 0.085 | 1.1 ± 0.053 | 1.06 ± 0.1 | 1.03 ± 0.27
ZAP70 (UniProt P43403) | 1.03 ± 0.091 | 1.02 ± 0.097 | 0.979 ± 0.074 | 0.966 ± 0.15 | 1.01 ± 0.076 | 0.989 ± 0.073
ACTR1B (UniProt P42025) | 1 ± 0.012 | 1.02 ± 0.015 | 1 ± 0.018 | 0.927 ± 0.039 | 1.02 ± 0.037 | 1.03 ± 0.04
P42166 and related entries (UniProt H0YJH7+P42167+P42166) | 1.09 ± 0.035 | 1.08 ± 0.021 | 1.05 ± 0.026 | 1.11 ± 0.035 | 1.05 ± 0.036 | 1.05 ± 0.017
UniProt P43250-2 | 1.2 ± 0.088 | 1.18 ± 0.048 | 1.2 ± 0.068 | 1.19 ± 0.071 | 1.18 ± 0.054 | 1.14 ± 0.031
UniProt P52209 and related entries | 0.952 ± 0.051 | 0.954 ± 0.05 | 0.918 ± 0.03 | 0.924 ± 0.075 | 0.921 ± 0.051 | 0.933 ± 0.04
UniProt P48454 and related entries | 1.04 ± 0.062 | 0.995 ± 0.033 | 0.959 ± 0.033 | 0.97 ± 0.05 | 1 ± 0.048 | 1 ± 0.044
PPP1R2 (UniProt P41236) | 0.902 ± 0.14 | 0.916 ± 0.13 | 0.887 ± 0.079 | 0.924 ± 0.15 | 0.81 ± 0.052 | 0.766 ± 0.1
UniProt P49023-2 | 0.952 ± 0.02 | 0.974 ± 0.031 | 0.9482 ± 0.0052 | 0.981 ± 0.029 | 0.941 ± 0.03 | 0.927 ± 0.023
UniProt P49590 and related entries | 1 ± 0.086 | 0.994 ± 0.074 | 0.969 ± 0.061 | 0.956 ± 0.079 | 1 ± 0.074 | 0.977 ± 0.07
UniProt P41134 and related entries | 0.914 ± 0.12 | 0.882 ± 0.19 | 0.984 ± 0.16 | 1.08 ± 0.24 | 0.914 ± 0.086 | 0.863 ± 0.17
UniProt P40855 and related entries | 0.902 ± 0.16 | 0.893 ± 0.19 | 0.903 ± 0.096 | 0.924 ± 0.19 | 0.807 ± 0.09 | 0.81 ± 0.16
KPNA2 (UniProt P52292) | 1.06 ± 0.071 | 1.08 ± 0.05 | 1.07 ± 0.061 | 1.11 ± 0.04 | 1.08 ± 0.033 | 1.09 ± 0.029
CBX5 (UniProt P45973) | 1.12 ± 0.067 | 1.16 ± 0.041 | 1.189 ± 0.0073 | 1.29 ± 0.027 | 1.27 ± 0.041 | 1.27 ± 0.049
STAT5B (UniProt P51692) | 1.02 ± 0.046 | 0.993 ± 0.024 | 0.989 ± 0.027 | 0.955 ± 0.041 | 0.982 ± 0.022 | 1.01 ± 0.024
DLST (UniProt P36957) | 1.07 ± 0.11 | 0.986 ± 0.12 | 0.97 ± 0.15 | 1.06 ± 0.29 | 1.02 ± 0.22 | 1.04 ± 0.19
HSPA9 (UniProt P38646) | 0.886 ± 0.1 | 0.977 ± 0.12 | 0.841 ± 0.073 | 1.03 ± 0.16 | 0.941 ± 0.034 | 0.862 ± 0.1

Quoted at random: 2 records from the list, in no set order.
Target | NP40-soluble protein abundance (concentration: 1mM) | NP40-soluble protein abundance (concentration: 2mM) | NP40-soluble protein abundance (concentration: 4mM) | NP40-soluble protein abundance (concentration: 6mM) | NP40-soluble protein abundance (concentration: 8mM) | NP40-soluble protein abundance (concentration: 10mM)
DLST (UniProt P36957) | 1.07 ± 0.11 | 0.986 ± 0.12 | 0.97 ± 0.15 | 1.06 ± 0.29 | 1.02 ± 0.22 | 1.04 ± 0.19
UniProt P49023-2 | 0.952 ± 0.02 | 0.974 ± 0.031 | 0.9482 ± 0.0052 | 0.981 ± 0.029 | 0.941 ± 0.03 | 0.927 ± 0.023
